# Test results as given in PMC9270419.
# By UniProt entry, the sequences of proteins in these tests, tags left out. Where a name states a change or a piece, a line headed by the entry shows the natural chain unless it says otherwise.
# UniProt P31749: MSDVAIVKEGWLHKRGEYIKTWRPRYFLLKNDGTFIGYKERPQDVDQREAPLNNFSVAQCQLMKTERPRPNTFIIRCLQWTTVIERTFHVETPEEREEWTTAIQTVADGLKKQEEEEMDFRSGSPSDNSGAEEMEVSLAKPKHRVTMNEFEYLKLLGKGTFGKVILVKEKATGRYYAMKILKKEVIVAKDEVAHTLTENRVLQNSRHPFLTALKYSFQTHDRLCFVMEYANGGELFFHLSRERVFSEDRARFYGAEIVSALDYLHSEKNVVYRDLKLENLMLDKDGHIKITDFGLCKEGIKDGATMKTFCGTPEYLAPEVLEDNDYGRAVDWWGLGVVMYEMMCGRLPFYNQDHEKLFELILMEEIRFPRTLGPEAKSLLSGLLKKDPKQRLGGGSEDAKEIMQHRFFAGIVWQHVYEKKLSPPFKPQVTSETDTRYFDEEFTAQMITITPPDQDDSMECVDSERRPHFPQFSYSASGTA
# No constants are given. Whether binding was seen depends on the method and setting. Binding seen in cells or lysates may run through a third protein. Some binding calls cover weakened binding; strength is not graded here.
# B1: PDK1, O15530 1-556 (protein)
# chain: MARTTSQLYDAVPIQSSVVLCSCPSPSMVRTQTESSTPPGIPGGSRQGPAMDGTAAEPRPGAGSLQHAQPPPQPRKKRPEDFKFGKILGEGSFSTVVLARELATSREYAIKILEKRHIIKENKVPYVTRERDVMSRLDHPFFVKLYFTFQDDEKLYFGLSYAKNGELLKYIRKIGSFDETCTRFYTAEIVSALEYLHGKGIIHRDLKPENILLNEDMHIQITDFGTAKVLSPESKQARANSFVGTAQYVSPELLTEKSACKSSDLWALGCIIYQLVAGLPPFRAGNEYLIFQKIIKLEYDFPEKFFPKARDLVEKLLVLDATKRLGCEEMEGYGPLKAHPFFESVTWENLHQQTPPKLTAYLPAMSEDDEDCYGNYDNLLSQFGCMQVSSSSSSHSLSASDTGLPQRSGSNIEQYIHDLDSNSFELDLQFSEDEKRLLLEKQAGGNPWHQFVENNLILKMGPVDKRKGLFARRRQLLLTEGPHLYYVDPVNKVLKGEIPWSQELRPEAKNFKTFFVHTPNRTYYLMDPSGNAHKWCRKIQEVWRQRYQSHPDAAVQ
# B2: PDK1 (protein, UniProt O15530 1-556)
# chain: B1 chain
# How the values were obtained:
# [1] = target: HA-tagged AKT1 wild type (pCDNA3/Flag-HA-AKT1) (human), P31749; experiment: co-IP; HA-tagged AKT1 wild type or R15K transfected into CHLA20 cells, with or without EGF stimulation; precipitated by HA beads, blots for PDK1 and SIN1; details: remark: other sources report otherwise
# [2] = target: endogenous AKT1 (human (endogenous in SK-N-BE(2), NGP and CHLA20)), P31749; experiment: co-IP; IP of endogenous AKT1, blots for PDK1 and SIN1; SK-N-BE(2) and NGP cells with or without PRMT5 knockdown; CHLA20 and NGP cells treated with DMSO or GSK591; details: remark: other sources report otherwise
# [3] = target: HA-tagged AKT1-R15K mutant (pCDNA3/Flag-HA-AKT1-R15K) (human) (UniProt P31749); experiment: co-IP; HA-tagged AKT1 wild type or R15K transfected into CHLA20 cells, with or without EGF stimulation; precipitated by HA beads, blots for PDK1 and SIN1
Binder,binding [1],binding [2],binding [3]
B1,binds,binds,
B2,,,no binding
